Structures were worked out from names or drawings and are uncertain.
Molecular target: Bek (Homo sapiens, UniProt P21802)
Test: Inhibitory activity against Bek-autophosphorylation using ELISA method in OCUM-2MD3 cells
Conditions: read-out: IC50 (concentration necessary for inhibiting 50% of Bek-phosphorylation), 1 hr with compound

Protein sequences, listed by entry. Tags and fused reporters are not part of them. Residues count along the entry.
UniProt P21802, 431-767 limits assumed: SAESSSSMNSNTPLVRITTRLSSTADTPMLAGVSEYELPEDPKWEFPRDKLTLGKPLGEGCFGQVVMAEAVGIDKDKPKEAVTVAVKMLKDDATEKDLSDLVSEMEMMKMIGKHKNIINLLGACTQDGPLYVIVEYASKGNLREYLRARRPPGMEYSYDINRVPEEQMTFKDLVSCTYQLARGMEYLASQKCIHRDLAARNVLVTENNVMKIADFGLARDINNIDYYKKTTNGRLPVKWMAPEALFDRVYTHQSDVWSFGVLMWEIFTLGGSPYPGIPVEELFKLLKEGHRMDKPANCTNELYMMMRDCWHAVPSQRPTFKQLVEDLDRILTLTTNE

IC50: 83.3 nM
Structure (SMILES): COc1cc2c(Oc3ccc(NC(=O)NCCC(C)(C)C)c(Cl)c3)ccnc2cc1OCC1CCCN(C(=O)OC(C)(C)C)C1 (stereo not shown)

Reference: patent publication US7495104B2, “Quinoline or quinazoline derivatives inhibiting auto-phosphorylation of fibroblast growth factor receptors” (Kirin Beer Kabushiki Kaisha, priority 2001, dated 2009)
